# Results are given in words; binding and its absence hold for the method and conditions named. Binding seen in cells or lysates may run through a third protein. Some results given as binding are weak or reduced against the parent protein; the word gives no strength. Where a sequence is shown, tags or fusion partners need not be part of it.
# Chains of the proteins cited; added tags and fusions are not shown.
# UniProt Q9UG01: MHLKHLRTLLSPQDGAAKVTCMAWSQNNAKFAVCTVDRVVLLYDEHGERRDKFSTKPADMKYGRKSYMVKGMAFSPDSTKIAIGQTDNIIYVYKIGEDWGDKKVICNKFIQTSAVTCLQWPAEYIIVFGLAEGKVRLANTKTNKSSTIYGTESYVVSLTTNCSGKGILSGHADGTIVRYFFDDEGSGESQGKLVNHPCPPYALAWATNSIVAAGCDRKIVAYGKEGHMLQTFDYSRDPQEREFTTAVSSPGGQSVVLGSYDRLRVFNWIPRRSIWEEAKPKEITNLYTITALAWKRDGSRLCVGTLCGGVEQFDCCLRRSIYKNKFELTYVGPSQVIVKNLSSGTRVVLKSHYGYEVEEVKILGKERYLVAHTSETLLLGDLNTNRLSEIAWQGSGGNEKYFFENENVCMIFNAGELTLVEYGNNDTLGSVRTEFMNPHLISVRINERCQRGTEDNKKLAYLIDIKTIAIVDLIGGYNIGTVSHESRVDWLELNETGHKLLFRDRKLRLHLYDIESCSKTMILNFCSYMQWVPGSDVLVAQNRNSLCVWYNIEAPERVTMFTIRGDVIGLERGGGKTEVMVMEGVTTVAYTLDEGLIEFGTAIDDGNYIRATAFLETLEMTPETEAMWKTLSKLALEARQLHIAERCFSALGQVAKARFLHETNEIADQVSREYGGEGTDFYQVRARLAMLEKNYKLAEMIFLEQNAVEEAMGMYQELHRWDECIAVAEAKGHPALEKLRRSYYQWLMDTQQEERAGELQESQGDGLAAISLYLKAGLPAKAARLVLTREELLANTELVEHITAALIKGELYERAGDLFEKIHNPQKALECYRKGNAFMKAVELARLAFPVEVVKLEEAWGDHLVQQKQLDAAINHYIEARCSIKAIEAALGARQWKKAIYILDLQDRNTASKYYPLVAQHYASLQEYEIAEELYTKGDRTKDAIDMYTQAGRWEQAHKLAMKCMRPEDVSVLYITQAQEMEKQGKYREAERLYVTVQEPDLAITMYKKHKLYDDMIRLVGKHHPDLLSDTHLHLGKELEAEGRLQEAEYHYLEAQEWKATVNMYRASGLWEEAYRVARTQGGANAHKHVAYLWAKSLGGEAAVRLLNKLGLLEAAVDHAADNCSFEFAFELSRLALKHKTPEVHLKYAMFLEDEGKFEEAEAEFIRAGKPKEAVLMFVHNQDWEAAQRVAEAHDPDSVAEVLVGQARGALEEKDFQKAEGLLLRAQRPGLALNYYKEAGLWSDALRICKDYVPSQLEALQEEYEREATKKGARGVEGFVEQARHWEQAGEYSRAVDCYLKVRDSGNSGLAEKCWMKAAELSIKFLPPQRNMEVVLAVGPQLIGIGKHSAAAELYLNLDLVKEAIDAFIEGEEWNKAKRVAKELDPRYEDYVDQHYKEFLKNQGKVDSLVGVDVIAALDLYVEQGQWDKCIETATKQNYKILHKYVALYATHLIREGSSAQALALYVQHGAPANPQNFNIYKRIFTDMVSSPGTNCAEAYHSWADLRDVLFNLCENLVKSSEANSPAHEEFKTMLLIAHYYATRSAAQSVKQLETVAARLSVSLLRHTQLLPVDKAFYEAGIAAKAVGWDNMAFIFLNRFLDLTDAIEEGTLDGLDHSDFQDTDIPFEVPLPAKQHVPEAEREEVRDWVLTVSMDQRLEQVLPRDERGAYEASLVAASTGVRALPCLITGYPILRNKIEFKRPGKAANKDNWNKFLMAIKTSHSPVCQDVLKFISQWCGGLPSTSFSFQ
# UniProt Q7Z494: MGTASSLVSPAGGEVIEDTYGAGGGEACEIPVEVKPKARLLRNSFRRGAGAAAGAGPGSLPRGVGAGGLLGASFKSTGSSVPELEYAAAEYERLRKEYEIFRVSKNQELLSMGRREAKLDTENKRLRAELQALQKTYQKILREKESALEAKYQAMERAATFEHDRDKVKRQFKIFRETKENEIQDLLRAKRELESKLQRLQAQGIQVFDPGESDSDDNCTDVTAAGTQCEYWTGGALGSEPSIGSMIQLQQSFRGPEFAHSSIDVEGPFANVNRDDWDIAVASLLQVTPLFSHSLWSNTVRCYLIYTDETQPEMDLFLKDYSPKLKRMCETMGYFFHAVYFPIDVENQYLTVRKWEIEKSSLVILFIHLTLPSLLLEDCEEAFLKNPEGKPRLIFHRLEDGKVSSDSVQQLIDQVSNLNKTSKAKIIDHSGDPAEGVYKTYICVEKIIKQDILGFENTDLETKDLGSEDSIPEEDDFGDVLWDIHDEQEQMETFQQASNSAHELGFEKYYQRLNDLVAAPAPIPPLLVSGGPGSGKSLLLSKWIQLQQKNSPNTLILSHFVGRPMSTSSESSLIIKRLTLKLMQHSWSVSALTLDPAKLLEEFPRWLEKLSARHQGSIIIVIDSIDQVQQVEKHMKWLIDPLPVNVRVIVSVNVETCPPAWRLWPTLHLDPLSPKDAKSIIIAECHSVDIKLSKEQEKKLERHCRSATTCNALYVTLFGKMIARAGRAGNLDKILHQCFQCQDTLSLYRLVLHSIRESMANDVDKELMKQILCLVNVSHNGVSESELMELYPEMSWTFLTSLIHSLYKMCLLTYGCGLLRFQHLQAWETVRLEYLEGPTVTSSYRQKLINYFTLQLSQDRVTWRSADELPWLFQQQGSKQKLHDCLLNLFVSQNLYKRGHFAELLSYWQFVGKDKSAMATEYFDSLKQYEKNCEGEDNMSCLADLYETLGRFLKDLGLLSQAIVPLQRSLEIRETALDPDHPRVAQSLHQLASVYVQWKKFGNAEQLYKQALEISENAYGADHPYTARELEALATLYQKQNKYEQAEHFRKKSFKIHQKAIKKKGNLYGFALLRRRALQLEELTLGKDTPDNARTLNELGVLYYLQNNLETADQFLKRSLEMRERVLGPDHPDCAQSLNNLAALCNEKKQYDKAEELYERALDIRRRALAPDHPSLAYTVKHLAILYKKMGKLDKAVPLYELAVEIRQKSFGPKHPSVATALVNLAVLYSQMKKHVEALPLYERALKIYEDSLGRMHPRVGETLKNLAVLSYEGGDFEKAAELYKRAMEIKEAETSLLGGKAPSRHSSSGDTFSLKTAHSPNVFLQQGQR
# T1: TTC21B (UniProt Q7Z4L5)
# T1 sequence: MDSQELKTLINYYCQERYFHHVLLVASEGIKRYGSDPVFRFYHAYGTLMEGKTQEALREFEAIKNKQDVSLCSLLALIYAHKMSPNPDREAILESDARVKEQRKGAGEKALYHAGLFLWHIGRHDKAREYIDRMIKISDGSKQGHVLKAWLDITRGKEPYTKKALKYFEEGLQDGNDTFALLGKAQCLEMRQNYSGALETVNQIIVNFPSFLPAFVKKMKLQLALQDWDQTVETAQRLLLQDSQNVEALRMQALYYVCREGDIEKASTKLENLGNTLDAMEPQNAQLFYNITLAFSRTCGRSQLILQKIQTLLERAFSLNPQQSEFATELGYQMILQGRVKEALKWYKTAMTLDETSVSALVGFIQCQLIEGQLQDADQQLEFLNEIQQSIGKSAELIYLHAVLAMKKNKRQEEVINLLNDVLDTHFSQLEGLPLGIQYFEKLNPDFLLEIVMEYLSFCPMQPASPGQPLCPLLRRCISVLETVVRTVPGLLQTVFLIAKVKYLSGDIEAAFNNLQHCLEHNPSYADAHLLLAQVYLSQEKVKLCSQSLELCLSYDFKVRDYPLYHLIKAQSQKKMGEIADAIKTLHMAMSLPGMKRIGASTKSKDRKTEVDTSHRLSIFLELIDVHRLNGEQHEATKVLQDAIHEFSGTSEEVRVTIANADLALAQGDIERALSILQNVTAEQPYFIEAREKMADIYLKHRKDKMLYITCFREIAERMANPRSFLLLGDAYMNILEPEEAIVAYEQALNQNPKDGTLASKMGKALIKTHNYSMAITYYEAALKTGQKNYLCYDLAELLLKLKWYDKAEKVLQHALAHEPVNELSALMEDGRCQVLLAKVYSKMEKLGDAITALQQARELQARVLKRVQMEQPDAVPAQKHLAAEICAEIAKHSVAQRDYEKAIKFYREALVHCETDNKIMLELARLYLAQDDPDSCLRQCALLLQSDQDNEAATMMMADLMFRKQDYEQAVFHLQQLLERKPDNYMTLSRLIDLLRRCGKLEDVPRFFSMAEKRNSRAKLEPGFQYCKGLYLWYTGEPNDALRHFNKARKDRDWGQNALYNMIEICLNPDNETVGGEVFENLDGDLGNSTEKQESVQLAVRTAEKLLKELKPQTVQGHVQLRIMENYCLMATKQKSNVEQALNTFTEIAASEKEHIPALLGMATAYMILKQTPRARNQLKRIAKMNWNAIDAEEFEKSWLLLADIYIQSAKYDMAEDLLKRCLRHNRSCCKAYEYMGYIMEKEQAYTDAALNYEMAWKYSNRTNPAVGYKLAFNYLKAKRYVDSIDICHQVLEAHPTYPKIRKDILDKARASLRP
# B1: V5-tagged NME3 (enzyme, UniProt Q13232 1-169)
# chain: MICLVLTIFANLFPAACTGAHERTFLAVKPDGVQRRLVGEIVRRFERKGFKLVALKLVQASEELLREHYAELRERPFYGRLVKYMASGPVVAMVWQGLDVVRTSRALIGATNPADAPPGTIRGDFCIEVGKNLIHGSDSVESARREIALWFRADELLCWEDSAGHWLYE
# B2: V5-tagged ANKS6 (ankyrin repeat and sterile alpha motif domain-containing 6) (protein, UniProt Q68DC2 1-871)
# chain: MGEGGLPPAFQLLLRACDQGDTETARRLLEPGAAEPAERGAEPEAGAEPAGAEVAGPGAAAAGAVGAPVPVDCSDEAGNTALQFAAAGGHEPLVRFLLRRGASVNSRNHYGWSALMQAARFGHVSVAHLLLDHGADVNAQNRLGASVLTVASRGGHLGVVKLLLEAGAFVDHHHPSGEQLGLGGSRDEPLDITALMAAIQHGHEAVVRLLMEWGADPNHAARTVGWSPLMLAALTGRLGVAQQLVEKGANPDHLSVLEKTAFEVALDCKHRDLVDYLDPLTTVRPKTDEEKRRPDIFHALKMGNFQLVKEIADEDPSHVNLVNGDGATPLMLAAVTGQLALVQLLVERHADVDKQDSVHGWTALMQATYHGNKEIVKYLLNQGADVTLRAKNGYTAFDLVMLLNDPDTELVRLLASVCMQVNKDKGRPSHQPPLPHSKVRQPWSIPVLPDDKGGLKSWWNRMSNRFRKLKLMQTLPRGLSSNQPLPFSDEPEPALDSTMRAAPQDKTSRSALPDAAPVTKDNGPGSTRGEKEDTLLTTMLRNGAPLTRLPSDKLKAVIPPFLPPSSFELWSSDRSRTRHNGKADPMKTALPQRASRGHPVGGGGTDTTPVRPVKFPSLPRSPASSANSGNFNHSPHSSGGSSGVGVSRHGGELLNRSGGSIDNVLSQIAAQRKKAAGLLEQKPSHRSSPVGPAPGSSPSELPASPAGGSAPVGKKLETSKRPPSGTSTTSKSTSPTLTPSPSPKGHTAESSVSSSSSHRQSKSSGGSSSGTITDEDELTGILKKLSLEKYQPIFEEQEVDMEAFLTLTDGDLKELGIKTDGSRQQILAAISELNAGKGRERQILQETIHNFHSSFESSASNTRAPGNSPCA
# Legend:
# IFT172 [1] = target: IFT172 (UniProt Q9UG01); assay: co-IP; FLAG-tagged and V5-tagged proteins coexpressed in HEK293T cells (calcium phosphate, 24 h); lysis in 1% Triton X-100, 20 mM Tris pH 7.5, 50 mM NaCl, 50 mM NaF, 15 mM Na4P2O7, 0.1 mM EDTA; anti-FLAG M2 agarose beads 2 h; Western blot with anti-V5 and anti-FLAG
# FLAG-tagged NPHP3 = FLAG-tagged NPHP3 (UniProt Q7Z494); assay: as above
# TTC21B = target: T1, TTC21B; assay: co-IP; Figure S1A, legend not shown; method taken from the paper's only described test of pairs (co-IP from transfected HEK293T cells)
# IFT172 [2] = target: IFT172 (UniProt Q9UG01); assay: as above
Binder,binding (IFT172 [1]),binding (FLAG-tagged NPHP3),binding (TTC21B),binding (IFT172 [2])
B1,binds,binds,–,–
B2,–,–,binds,binds

# From publication PMC6166740
